PubChem BioAssay AID743121, NCATS, 2013
Purpose: 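Partners whose loss is lethal together with topoisomerase I blockade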 (primary screen). Cell system: MDA-MB-231 cells, a human breast cancer line. Knock-down reagent: single siRNA against human genes, 20 nM siRNA (0.8 pmol per well). Timing: 120 h (drug added 48 h after transfection, read 72 h later). Conditions: camptothecin 20 nM (about EC30) for 72 h; vehicle 0.1% DMSO in parallel plates. Measurement: 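Cell viability by ATP luminescence (CellTiter-Glo) as % of non-targeting siRNA wells, and the log2 ratio of viability without drug over viability with camptothecin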. Reading the numbers: log2 vehicle/camptothecin viability: higher = stronger sensitisation to camptothecin; viability with camptothecin and viability without drug: higher = more viable cells. Rule for the call: 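Active genes have an RSA gene-level p-value below 0.001, computed from the ratios of their separate siRNAs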.
This is one part, drawn at random, of about 26,000 deposited reagents. 167 of them (0.63%) were called active. 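Calls are per gene from RSA p-values that are not deposited; an individual active-marked siRNA can sensitise only weakly.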 The numbers tell different reagents against one gene apart.

log2 vehicle/camptothecin viability,viability with camptothecin (% of control),viability without drug (% of control),activity call,target,siRNA no.
-0.459,112,81.6,inactive,NFIB (GeneID 4781),1
-0.121,95,87.4,inactive,NFIB (GeneID 4781),2
-0.239,114,96.5,inactive,NFIB (GeneID 4781),3
-0.188,60.8,53.4,inactive,NFIB (GeneID 4781),4
-0.226,90.8,77.7,inactive,NUCKS1 (GeneID 64710),1
-0.265,75.4,62.7,inactive,NUCKS1 (GeneID 64710),2
-0.191,52.1,45.6,inactive,NUCKS1 (GeneID 64710),3
-0.0622,91.4,87.5,inactive,NUCKS1 (GeneID 64710),4
-0.268,79.4,65.9,inactive,EID2 (GeneID 163126),1
-0.218,101,86.5,inactive,EID2 (GeneID 163126),2
-0.215,127,110,inactive,EID2 (GeneID 163126),3
-0.132,87.6,80,inactive,RAD1 (GeneID 5810),1
0.18,71.3,80.8,inactive,RAD1 (GeneID 5810),2
-0.155,43.5,39,inactive,RAD1 (GeneID 5810),3
-0.198,72.2,63,inactive,RAD1 (GeneID 5810),4
-0.494,64.6,45.8,inactive,HSPA5 (GeneID 3309),1
-0.0354,22.5,21.9,inactive,HSPA5 (GeneID 3309),2
-0.449,105,76.6,inactive,HSPA5 (GeneID 3309),3
-0.206,47.2,40.9,inactive,CAPN5 (GeneID 726),1
-0.346,62.7,49.4,inactive,CAPN5 (GeneID 726),2
0.0981,96.5,103,inactive,CAPN5 (GeneID 726),3
0.366,59.4,76.6,inactive,CAPN5 (GeneID 726),4
1.02,20.2,40.9,inactive,SLC6A17 (GeneID 388662),1
-0.135,99.7,90.8,inactive,SLC6A17 (GeneID 388662),2
-0.522,80.5,56.1,inactive,SLC6A17 (GeneID 388662),3
-0.169,56.4,50.1,inactive,SLC6A17 (GeneID 388662),4
0.397,62.3,82.1,inactive,SLC25A5 (GeneID 292),1
-0.197,64.3,56.1,inactive,SLC25A5 (GeneID 292),2
-0.0913,62.5,58.7,inactive,SLC25A5 (GeneID 292),3

A run of entries from the list above:
log2 vehicle/camptothecin viability,viability with camptothecin (% of control),viability without drug (% of control),activity call,target,siRNA no.
-0.191,52.1,45.6,inactive,NUCKS1 (GeneID 64710),3
-0.0622,91.4,87.5,inactive,NUCKS1 (GeneID 64710),4
